# Values from PubChem BioAssay AID686938 (Drosophila RNAi Screening Center, 2013)
# Aim: 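Knock-downs reducing store-operated calcium influx in Drosophila cells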 (primary screen)
# Cell system: Drosophila S2R+ cells
# Knock-down reagent: long dsRNA against Drosophila genes, about 0.25 µg dsRNA per well, roughly 10,000 cells
# Timing: 5 days of knock-down before the calcium assay
# Challenge: thapsigargin (SERCA pump blocker) to empty calcium stores; entry signal taken 4 min after adding it
# Detection: 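Duplicate raw fluo-4 intensities per well from a plate reader, at rest and four minutes after thapsigargin emptied calcium stores; entry-to-rest ratio filled for only some wells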
# Direction: calcium entry signal: higher = stronger calcium signal after store depletion; entry to resting ratio: higher = more calcium entry relative to resting level; resting calcium signal: higher = higher resting calcium signal
# Rule for the call: 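Called when the plate z-score of the entry-to-rest ratio, mean of duplicates, falls below −3; wells with low overall dye signal (Fmax z below −2) or more than five off-targets excluded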
# Meaning of the calls: active = strongly reduced calcium entry; inactive = no strong reduction
# The deposit covers about 23,000 reagents; shown is an unselected part of those with a known target gene and a result. Over the whole deposit, 75 (0.33%) were called active. 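Raw plate signals without normalisation; calls rest on plate z-scores that were not deposited; ratio present for only 364 wells.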 The numbers tell different reagents against one gene apart. A plus sign joins genes that one reagent is predicted to hit. Not stated in the record: the dose of the treatment.
Gene,reagent,"calcium entry signal, replicate 1 (fluorescence units)","calcium entry signal, replicate 2 (fluorescence units)",entry to resting ratio,"resting calcium signal, replicate 1 (fluorescence units)","resting calcium signal, replicate 2 (fluorescence units)",activity call
CG42710,1,3.34e7,5.41e7,,1.82e7,2.34e7,inactive
CG13639,1,3.46e7,2.77e7,,1.63e7,1.33e7,inactive
CG42697,1,3.20e7,3.42e7,,1.48e7,1.71e7,inactive
Mnr,1,3.81e7,3.93e7,,2.22e7,1.80e7,inactive
Mnr,2,3.88e7,4.12e7,,2.19e7,1.76e7,inactive
Mnr,3,4.60e7,4.16e7,,2.30e7,1.95e7,inactive
CG15695,1,4.34e7,4.68e7,,5.96e7,2.07e7,inactive
Or22c,1,3.42e7,3.84e7,,1.61e7,1.74e7,inactive
CG7142,1,4.41e7,4.84e7,,5.91e7,2.22e7,inactive
CG7179,1,2.24e7,3.12e7,,1.06e7,1.36e7,inactive
ft,1,4.98e7,,,2.52e7,,inactive
az2,1,4.56e7,,,2.40e7,,inactive
CG9289,1,3.51e7,5.08e7,,1.73e7,2.20e7,inactive
Teh2,1,4.27e7,4.16e7,,2.13e7,1.80e7,inactive
kon,1,3.39e7,,,1.38e7,,inactive
Ktch,1,4.45e7,5.62e7,,2.23e7,2.57e7,inactive
DCP2,1,3.85e7,2.87e7,,1.84e7,1.46e7,inactive
DCP2,2,4.22e7,4.91e7,,2.24e7,3.65e7,inactive
RpS4,1,1.16e7,9.50e6,,8.67e6,8.18e6,inactive
CG1544,1,3.24e7,4.09e7,,1.41e7,1.90e7,inactive
l(2)k14505,1,3.60e7,,,1.70e7,,inactive
CG4367,1,3.48e7,3.77e7,,4.49e7,1.68e7,inactive
CG7824,1,3.85e7,5.10e7,,2.03e7,2.14e7,inactive
Oseg4,1,3.40e7,2.94e7,,1.52e7,1.39e7,inactive
CG11529,1,2.73e7,3.72e7,,1.54e7,1.74e7,inactive
EMC5,1,3.39e7,5.65e7,,1.70e7,2.05e7,inactive

Records above whose gene name starts with D or d:
Gene,reagent,"calcium entry signal, replicate 1 (fluorescence units)","calcium entry signal, replicate 2 (fluorescence units)",entry to resting ratio,"resting calcium signal, replicate 1 (fluorescence units)","resting calcium signal, replicate 2 (fluorescence units)",activity call
DCP2,1,3.85e7,2.87e7,,1.84e7,1.46e7,inactive
DCP2,2,4.22e7,4.91e7,,2.24e7,3.65e7,inactive

Continued:
Gene,reagent,"calcium entry signal, replicate 1 (fluorescence units)","calcium entry signal, replicate 2 (fluorescence units)",entry to resting ratio,"resting calcium signal, replicate 1 (fluorescence units)","resting calcium signal, replicate 2 (fluorescence units)",activity call
CG18810,1,6.14e7,6.35e7,,2.95e7,2.44e7,inactive
tub,1,4.05e7,7.54e7,,1.92e7,3.26e7,inactive
tub,2,2.94e7,4.22e7,,1.46e7,1.95e7,inactive
dpn,1,2.97e7,3.84e7,,1.48e7,1.66e7,inactive
CG17190,1,2.67e7,3.24e7,,3.43e7,1.41e7,inactive
egh,1,4.43e7,2.97e7,2.2,2.00e7,1.36e7,inactive
Ccp84Ac,1,4.42e7,3.71e7,,2.28e7,1.72e7,inactive
Synd,1,4.72e7,4.81e7,,6.20e7,2.27e7,inactive
TkR86C,1,3.33e7,3.20e7,,1.66e7,1.59e7,inactive
grk,1,4.33e7,,,2.56e7,,inactive
CG11686,1,2.44e7,4.74e7,,1.28e7,5.88e7,inactive
stl,1,3.95e7,,,1.98e7,,inactive
CG30015,1,4.22e7,4.34e7,,1.79e7,1.85e7,inactive
CG30015,2,4.54e7,4.00e7,,2.08e7,1.93e7,inactive
CG30015,3,3.97e7,4.49e7,,1.81e7,1.76e7,inactive
wuc,1,3.46e7,5.12e7,,1.87e7,2.20e7,inactive
CG2310,1,3.25e7,4.49e7,,1.65e7,2.02e7,inactive
CG14300,1,3.28e7,3.77e7,,6.18e7,1.57e7,inactive
Mtap,1,2.74e7,2.73e7,,1.26e7,1.29e7,inactive
CG11584,1,3.36e7,2.72e7,,1.68e7,1.17e7,inactive
Pgam5-2,1,4.00e7,4.60e7,,2.04e7,2.06e7,inactive
Fsn,1,2.65e7,2.51e7,,1.30e7,1.22e7,inactive
CG13581,1,4.40e7,5.37e7,,2.12e7,2.36e7,inactive
ETH + asRNA:CR43257,1,3.98e7,4.62e7,,2.12e7,2.14e7,inactive
Smu1,1,4.56e7,2.40e7,,1.96e7,1.12e7,inactive
janA,1,3.89e7,5.00e7,,1.88e7,2.10e7,inactive
Ppn,1,3.35e7,4.58e7,,1.67e7,2.05e7,inactive
NLaz,1,3.27e7,4.02e7,,1.82e7,1.85e7,inactive
CG9701,1,2.27e7,3.40e7,,1.14e7,2.21e7,inactive
mRpS22,1,5.27e7,6.33e7,,2.09e7,2.61e7,inactive
Kul,1,4.21e7,4.18e7,,2.15e7,2.10e7,inactive
cn,1,2.97e7,4.33e7,,1.50e7,1.84e7,inactive
